Source: the supplement of paper PMC6078165

Test system: MDAMB468
Experiment: relative JC-1 red fluorescence (viability) vs pre-drug, coculture with fibroblast (fraction); higher = more viable cancer cells
Description: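 JC-1 labelled TNBC cells cocultured 1:1 (1,500 cells each) with CellTrace Violet stained primary or stromal fibroblasts in 384-well plates in FluoroBrite medium, treated with one of 42 anticancer drugs at 0.1, 1, 10 or 100 uM. JC-1 red fluorescence (mitochondrial integrity in cancer cells only) was read by plate reader every 8 h for 72 h. Values are normalised to each well's pre-drug value. The stock of one drug was tenfold lower, so its dose labels may be too high.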

O=C1c2c(O)ccc(O)c2C(=O)c2c(NCCNCCO)ccc(NCCNCCO)c21 [Mitoxantrone]
relative JC-1 red fluorescence
Conditions | 8 h | 16 h | 24 h | 32 h | 40 h | 48 h | 56 h | 64 h | 72 h
1 µM, coculture fibroblast: C12385 | – | – | – | – | – | 0.641 ± 0.011 | 0.598 ± 0.013 | 0.5715 ± 0.0047 | 0.562 ± 0.0072
1 µM, coculture fibroblast: H6013 | – | – | – | – | – | 0.4818 ± 0.0007 | 0.445 ± 0.0072 | 0.42 ± 0.0052 | 0.346 ± 0.008
1 µM, coculture fibroblast: H6019 | – | – | – | – | – | 0.49 ± 0.051 | 0.459 ± 0.053 | 0.448 ± 0.056 | 0.433 ± 0.055
1 µM, coculture fibroblast: H6076 | – | – | – | – | – | 0.46 ± 0.1 | 0.424 ± 0.094 | 0.394 ± 0.098 | 0.424 ± 0.1
1 µM, coculture fibroblast: H6231 | – | – | – | – | – | 0.4702 ± 0.0022 | 0.417 ± 0.0052 | 0.3945 ± 0.00055 | 0.3991 ± 0.00046
1 µM, coculture fibroblast: HADF | – | – | – | – | – | 0.5181 ± 0.0047 | 0.488 ± 0.0071 | 0.467 ± 0.013 | 0.389 ± 0.017
1 µM, coculture fibroblast: HCFa | – | – | – | – | – | 0.596 ± 0.1 | 0.564 ± 0.095 | 0.528 ± 0.094 | 0.455 ± 0.085
1 µM, coculture fibroblast: HCPF | – | – | – | – | – | 0.479 ± 0.006 | 0.437 ± 0.0074 | 0.416 ± 0.0069 | 0.411 ± 0.0037
1 µM, coculture fibroblast: HHSteC | – | – | – | – | 0.602 ± 0.059 | 0.593 ± 0.052 | 0.531 ± 0.04 | 0.503 ± 0.037 | 0.423 ± 0.037
1 µM, coculture fibroblast: HMF | – | – | – | – | 0.533 ± 0.068 | 0.509 ± 0.085 | 0.474 ± 0.097 | 0.457 ± 0.11 | 0.463 ± 0.11
1 µM, coculture fibroblast: HPFa | – | – | – | – | 0.59 ± 0.041 | 0.589 ± 0.04 | 0.536 ± 0.038 | 0.513 ± 0.046 | 0.43 ± 0.041
1 µM, coculture fibroblast: HUF | – | – | – | – | 0.6 ± 0.016 | 0.593 ± 0.024 | 0.548 ± 0.019 | 0.524 ± 0.018 | 0.5 ± 0.025
1 µM, coculture fibroblast: Hs5 | – | – | – | – | 0.745 ± 0.088 | 0.7 ± 0.075 | 0.656 ± 0.081 | 0.615 ± 0.076 | 0.651 ± 0.082
1 µM, coculture fibroblast: Hs27A | – | – | – | – | 0.486 ± 0.056 | 0.472 ± 0.065 | 0.443 ± 0.063 | 0.418 ± 0.072 | 0.348 ± 0.059
1 µM, coculture fibroblast: Hs343T | – | – | – | – | 0.5 ± 0.05 | 0.476 ± 0.035 | 0.446 ± 0.03 | 0.421 ± 0.026 | 0.418 ± 0.035
1 µM, coculture fibroblast: WS1 | – | – | – | – | 0.47 ± 0.032 | 0.458 ± 0.028 | 0.427 ± 0.027 | 0.402 ± 0.032 | 0.389 ± 0.034
10 µM, coculture fibroblast: C12385 | 0.873 ± 0.076 | 0.9 ± 0.12 | 0.783 ± 0.13 | 0.674 ± 0.12 | 0.612 ± 0.12 | 0.613 ± 0.14 | 0.529 ± 0.11 | 0.438 ± 0.099 | 0.389 ± 0.11
10 µM, coculture fibroblast: H6013 | 0.547 ± 0.13 | 0.661 ± 0.23 | 0.539 ± 0.19 | 0.523 ± 0.18 | 0.476 ± 0.18 | 0.444 ± 0.16 | 0.365 ± 0.15 | 0.299 ± 0.14 | 0.171 ± 0.1
10 µM, coculture fibroblast: H6019 | 0.741 ± 0.068 | 0.837 ± 0.033 | 0.696 ± 0.081 | 0.655 ± 0.11 | 0.568 ± 0.12 | 0.547 ± 0.11 | 0.475 ± 0.091 | 0.422 ± 0.088 | 0.386 ± 0.093
10 µM, coculture fibroblast: H6076 | 0.548 ± 0.0069 | 0.614 ± 0.012 | 0.682 ± 0.0048 | 0.733 ± 0.01 | 0.609 ± 0.053 | 0.57 ± 0.085 | 0.491 ± 0.12 | 0.44 ± 0.16 | 0.484 ± 0.18
10 µM, coculture fibroblast: H6231 | 0.357 ± 0.11 | 0.498 ± 0.17 | 0.455 ± 0.019 | 0.468 ± 0.051 | 0.353 ± 0.051 | 0.321 ± 0.058 | 0.267 ± 0.072 | 0.239 ± 0.081 | 0.235 ± 0.098
10 µM, coculture fibroblast: HADF | 0.3778 ± 0.00086 | 0.406 ± 0.0073 | 0.311 ± 0.0026 | 0.3077 ± 0.0011 | 0.312 ± 0.014 | 0.31 ± 0.01 | 0.266 ± 0.0048 | 0.239 ± 0.0052 | 0.1551 ± 0.00056
10 µM, coculture fibroblast: HCFa | 0.426 ± 0.041 | 0.436 ± 0.048 | 0.365 ± 0.064 | 0.424 ± 0.08 | 0.43 ± 0.08 | 0.437 ± 0.087 | 0.392 ± 0.083 | 0.316 ± 0.073 | 0.209 ± 0.063
10 µM, coculture fibroblast: HCPF | 0.591 ± 0.29 | 0.671 ± 0.21 | 0.722 ± 0.14 | 0.772 ± 0.095 | 0.692 ± 0.14 | 0.67 ± 0.16 | 0.639 ± 0.17 | 0.629 ± 0.19 | 0.637 ± 0.2
10 µM, coculture fibroblast: HHSteC | 0.505 ± 0.028 | 0.64902 ± 0.00024 | 0.543 ± 0.053 | 0.503 ± 0.053 | 0.437 ± 0.051 | 0.408 ± 0.047 | 0.325 ± 0.045 | 0.264 ± 0.037 | 0.165 ± 0.027
10 µM, coculture fibroblast: HMF | 0.73 ± 0.1 | 0.757 ± 0.12 | 0.733 ± 0.084 | 0.75 ± 0.076 | 0.697 ± 0.074 | 0.704 ± 0.065 | 0.686 ± 0.052 | 0.691 ± 0.037 | 0.697 ± 0.027
10 µM, coculture fibroblast: HPFa | 0.429 ± 0.055 | 0.422 ± 0.038 | 0.297 ± 0.025 | 0.273 ± 0.039 | 0.279 ± 0.039 | 0.306 ± 0.035 | 0.268 ± 0.039 | 0.243 ± 0.023 | 0.164 ± 0.022
10 µM, coculture fibroblast: HUF | 0.878 ± 0.088 | 0.771 ± 0.063 | 0.542 ± 0.051 | 0.503 ± 0.022 | 0.481 ± 0.019 | 0.492 ± 0.017 | 0.432 ± 0.021 | 0.391 ± 0.028 | 0.33 ± 0.034
10 µM, coculture fibroblast: Hs5 | 0.659 ± 0.097 | 0.737 ± 0.11 | 0.701 ± 0.16 | 0.528 ± 0.17 | 0.422 ± 0.14 | 0.358 ± 0.14 | 0.296 ± 0.12 | 0.232 ± 0.11 | 0.22 ± 0.11
10 µM, coculture fibroblast: Hs27A | 0.348 ± 0.046 | 0.296 ± 0.094 | 0.319 ± 0.084 | 0.326 ± 0.11 | 0.306 ± 0.13 | 0.292 ± 0.12 | 0.258 ± 0.12 | 0.232 ± 0.11 | 0.156 ± 0.089
10 µM, coculture fibroblast: Hs343T | 0.662 ± 0.076 | 0.662 ± 0.088 | 0.717 ± 0.065 | 0.751 ± 0.089 | 0.674 ± 0.059 | 0.66 ± 0.04 | 0.624 ± 0.033 | 0.621 ± 0.026 | 0.629 ± 0.016
10 µM, coculture fibroblast: WS1 | 0.84 ± 0.12 | 0.79 ± 0.014 | 0.797 ± 0.28 | 0.685 ± 0.27 | 0.556 ± 0.24 | 0.49 ± 0.23 | 0.417 ± 0.22 | 0.334 ± 0.19 | 0.277 ± 0.17

± gives the standard deviation of the averaged measurements. The reference is the same well before dosing, and untreated signal decays as well.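 Fibroblast labels name human fibroblasts: mostly primary ones from tissues such as uterus (C12385, HUF), lung (H6013), bone (Hs27A), adrenal (HADF) and skin (WS1), plus mammary HMF and breast cancer-associated Hs343T. The cancer cells are basal-like or mesenchymal-like triple-negative breast cancer lines. The paper calls a changed response a hit when it shifts by more than 3x the replicate standard deviation. The tissue of the other fibroblasts is not given here.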
